Here are results for one compound from patent US4891374A, “Imidazo- and triazolothiadiazines” (Hoechst Aktiengesellschaft, priority 1987, dated 1990).

The term LD50 denotes the dose expected to kill half of the subjects tested.

A short description of data set [1]: in vivo. The note with it: mouse, ip. Here is the method: The LD50 values were determined by standard methods from the mortality occurring within 7 days in NMRI (Naval Medical Research Institute) mice (6 animals per dose) after a single intraperitoneal (i.p.) administration.
Data set [2] is described as follows: Acute gastral ulcerogenity. The settings on record: rat, in vivo, po. Here is the method:
The investigation was in each case carried out on 10 male Sprague-Dawley rats whose gastric mucous membrane had been sensitized by hunger stress. The body weight of the animals was between 200 and 300 g. While allowing free access to the drinking water, the feed was withdrawn 48 hours before administration of the test preparations until sacrifice of the animals. The rats were sacrificed 24 hours after oral administration of the substance, and the stomachs were removed, cleaned under running water and inspected for mucous membrane lesions. All macroscopically visible lesions were regarded as ulcers. The number of animals having ulcers was determined per dose, and this figure was used to calculate, by the method of Litchfield and Wilcoxon (J. Pharmacol. Exp. Ther. 96 (1949), p. 99), the UD50 values, ie. the doses at which lesions were caused in 50% of the animals.

For the compound `COc1ccc2cc(C(C)C(=O)O)ccc2c1` (centres unmarked) [naproxen, 2-(6-methoxy2-naphthyl)-propionic acid, reference compound], the LD50 at 168 h in data set [1] amounted to 500 mg/kg. Also, the TD50 at 24 h in data set [2] came out at 23 mg/kg.
